# Record: PubChem BioAssay AID504784 (Drosophila RNAi Screening Center, 2011)
# Screen: 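Fly genes whose silencing alters how much lipid cells keep in droplets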 (primary screen)
# Cells: Drosophila Kc167 embryonic cells
# Knock-down reagent: long dsRNA against Drosophila genes, about 250 ng dsRNA per well
# Duration: 4 days
# Treatment: cells fed 400 µM oleic acid bound to BSA
# Measurement: 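Cells imaged and segmented; ratio of lipid droplet area to nuclear area, log-transformed, then normalised as a B-score over the screen; higher means more stored lipid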
# Direction: droplet/nuclear area B-score: higher = more stored lipid (overstorage)
# In all, the deposit lists about 17,000 reagents; below is an unselected part of those with a known target gene and a result. 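Each column is one replicate's B-score; the combined score over replicates was not deposited, so single values may mislead.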 Names joined by + are all predicted targets of the reagent. Not all columns of the deposit are shown.
target,amplicon,"droplet/nuclear area B-score, replicate 1"
S-Lap3 (Sperm-Leucylaminopeptidase 3),DRSC10956,0.13
Ctr1A (Copper transporter 1A),DRSC18336,4
CG15237,DRSC04971,-0.151
CG33230,DRSC08602,0.359
Ir7b (Ionotropic receptor 7b),DRSC18009,-1.92
CG3065,DRSC04333,-1.74
CG14767,DRSC06500,-2.77
CG32643,DRSC18962,-0.239
CG7071 + Muted,DRSC16189,1.69
CG32436,DRSC11683,-0.397
CG32436,DRSC11796,-1.8
PolE2 (DNA polymerase epsilon subunit 2),DRSC09737,1.85
CG34376,DRSC14695,0.365
CG34376,DRSC14696,0.238
CG34376,DRSC14701,-0.892
CG31740,DRSC01619,0.397
CG42749,DRSC18091,-0.612
CG42749,DRSC18092,-0.0386
f-cup (flyers-cup),DRSC14139,7.94
CR11386 + CR33222,DRSC17781,0.0766
CG2915,DRSC06842,-0.521
mbc (myoblast city),DRSC16995,0.508
Or2a (Odorant receptor 2a),DRSC18690,-0.259
Tre1 (Trapped in endoderm 1),DRSC18726,1.53
CG15547,DRSC15085,-0.713
SrpRalpha (Signal recognition particle receptor alpha),DRSC20251,2.1
bcd (bicoid),DRSC12624,0.0903
CG18787 + CG18789,DRSC02698,-5.53
CG43339 + CG43338,DRSC02466,0.0162
Pdp1 (PAR-domain protein 1),DRSC08896,-3.15
Pdp1 (PAR-domain protein 1),DRSC08897,-1.39
Pdp1 (PAR-domain protein 1),DRSC11251,0.0565
Pdp1 (PAR-domain protein 1),DRSC22973,3.72
CG15514,DRSC15053,-1.2
CG15043,DRSC19619,0.55
GstE6 (Glutathione S transferase E6),DRSC06676,-1.67
Hmr (Hybrid male rescue),DRSC17740,0.235
trr (trithorax-related),DRSC18845,-0.244
trr (trithorax-related),DRSC23290,-0.167
CG6108 (retired record),DRSC02929,-2.03
sunz (sungrazer),DRSC12559,0.0778
bchs (blue cheese),DRSC03126,1.52
CG32196,DRSC09548,0.191
CG8079,DRSC07070,0.0104
CG8079,DRSC07071,0.971
SP1173,DRSC11277,0.553
IFT43 (Intraflagellar transport 43),DRSC02892,-0.142
CG18744,DRSC15381,-0.315
CG7166,DRSC11809,1.33

Look-ups from the entries so far.
Result of CG31740 [DRSC01619] in “droplet/nuclear area B-score, replicate 1”: 0.397
CR11386 + CR33222 [DRSC17781], droplet/nuclear area B-score, replicate 1: 0.0766
Pdp1 (PAR-domain protein 1) [DRSC08896], droplet/nuclear area B-score, replicate 1: -3.15
Value for CG7071 + Muted [DRSC16189] under “droplet/nuclear area B-score, replicate 1”: 1.69
CG43339 + CG43338 [DRSC02466], droplet/nuclear area B-score, replicate 1: 0.0162
Under “droplet/nuclear area B-score, replicate 1”, bcd (bicoid) [DRSC12624] shows 0.0903

The list goes on:
target,amplicon,"droplet/nuclear area B-score, replicate 1"
Ir68a (Ionotropic receptor 68a),DRSC10599,-0.00856
aust (australin),DRSC02558,-1.24
CG13344,DRSC06378,-0.0253
CheA7a (Chemosensory protein A 7a),DRSC17965,0.64
CG17111,DRSC15174,-0.564
Or42a (Odorant receptor 42a),DRSC04912,0.00966
CG7044,DRSC16180,1.5
CG13197,DRSC06322,-0.0316
CG33964 + CG13175,DRSC06300,-1.07
CG33964 + CG13175,DRSC06301,1.87
CG33964 + CG13175,DRSC07184,-0.94
Ir7f (Ionotropic receptor 7f),DRSC18012,-0.034
CG7069,DRSC16188,0.157
Doc3 (Dorsocross3),DRSC10480,0.935
beat-Ic (beaten path Ic),DRSC01524,-0.125
beat-Ic (beaten path Ic),DRSC03491,2.14
Inx7 + cm,DRSC18753,0.614
Tig (Tiggrin),DRSC03456,0.519
CG30105,DRSC05668,-1.1
mei-217 + mei-218,DRSC20349,1.38
CG15628,DRSC00256,0.979
CG15628,DRSC00463,0.623
ssx,DRSC18492,-0.399
twi (twist),DRSC04720,-2.27
twi (twist),DRSC23185,2.06
CG14237,DRSC14731,-1.95
CG14237,DRSC23239,0.0257
CG4374,DRSC15570,-1.09
Xpac (Xeroderma pigmentosum group A-like),DRSC18730,-0.119
CG33502 + CG32857 + CG32500,DRSC20817,-0.187
CG33502 + CG32857 + CG32500,DRSC21038,-0.62
Gr93b (Gustatory receptor 93b),DRSC22063,0.415
CG15279,DRSC01935,1.46
mRpS9 (mitochondrial ribosomal protein S9),DRSC12645,0.833
mRpS9 (mitochondrial ribosomal protein S9),DRSC15456,2.98
CG7550,DRSC10875,-0.932
pum (pumilio),DRSC12726,1.05
pum (pumilio),DRSC17037,0.757
pum (pumilio),DRSC17038,0.876
pum (pumilio),DRSC22758,0.975
pum (pumilio),DRSC22794,0.947
dati (datilografo),DRSC17128,0.0529
dati (datilografo),DRSC17153,-1.69
CG4942,DRSC10462,-2.8
l(2)k05911 (lethal (2) k05911),DRSC02523,0.735
eEFSec,DRSC04571,-0.452
CG12426,DRSC14516,-0.173
MED1 (Mediator complex subunit 1),DRSC11808,0.0223
ewg (erect wing),DRSC18773,0.351
elgi (early girl),DRSC10242,-0.0248
CG10171,DRSC09711,-0.291
Pngl (PNGase-like),DRSC04914,0.408
CG7950 + Rpp14a,DRSC16353,0.608
CG10333,DRSC02036,-0.796
CG4497,DRSC02754,0.754
Rubicon,DRSC17889,0.203
